Data reported in the supplement of paper PMC6411743.
± gives the standard deviation of the averaged measurements. The list shows a part of the results.

The chains behind the UniProt entries cited, without tags or fusion partners. Where a name states a change or a piece, a line headed by the entry shows the natural chain unless it says otherwise.
UniProt Q6P1R4: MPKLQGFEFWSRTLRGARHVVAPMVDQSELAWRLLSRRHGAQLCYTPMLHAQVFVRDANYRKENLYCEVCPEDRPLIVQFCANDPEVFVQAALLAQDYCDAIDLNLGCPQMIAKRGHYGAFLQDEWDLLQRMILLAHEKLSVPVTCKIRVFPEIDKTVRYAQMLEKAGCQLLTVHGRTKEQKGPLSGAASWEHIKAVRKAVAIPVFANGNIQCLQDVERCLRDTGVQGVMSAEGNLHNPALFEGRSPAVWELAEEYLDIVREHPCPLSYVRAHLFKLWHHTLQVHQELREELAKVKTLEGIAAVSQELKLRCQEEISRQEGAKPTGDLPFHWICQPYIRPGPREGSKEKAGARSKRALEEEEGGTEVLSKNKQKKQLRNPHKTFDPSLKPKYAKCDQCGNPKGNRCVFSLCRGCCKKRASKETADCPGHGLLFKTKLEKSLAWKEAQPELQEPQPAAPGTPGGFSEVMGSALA
UniProt Q86VY4: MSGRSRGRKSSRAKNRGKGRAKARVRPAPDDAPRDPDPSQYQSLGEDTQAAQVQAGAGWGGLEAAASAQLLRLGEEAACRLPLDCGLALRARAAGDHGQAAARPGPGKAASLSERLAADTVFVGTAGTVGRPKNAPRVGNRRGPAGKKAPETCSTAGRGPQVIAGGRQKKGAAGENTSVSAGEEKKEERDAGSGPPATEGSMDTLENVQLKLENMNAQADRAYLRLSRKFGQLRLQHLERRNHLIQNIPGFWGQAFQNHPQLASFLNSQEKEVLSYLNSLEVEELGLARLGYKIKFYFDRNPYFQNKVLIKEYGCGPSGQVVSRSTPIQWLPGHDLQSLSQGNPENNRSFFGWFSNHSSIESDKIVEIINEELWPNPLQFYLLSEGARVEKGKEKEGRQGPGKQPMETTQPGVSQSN
UniProt Q6PJT7: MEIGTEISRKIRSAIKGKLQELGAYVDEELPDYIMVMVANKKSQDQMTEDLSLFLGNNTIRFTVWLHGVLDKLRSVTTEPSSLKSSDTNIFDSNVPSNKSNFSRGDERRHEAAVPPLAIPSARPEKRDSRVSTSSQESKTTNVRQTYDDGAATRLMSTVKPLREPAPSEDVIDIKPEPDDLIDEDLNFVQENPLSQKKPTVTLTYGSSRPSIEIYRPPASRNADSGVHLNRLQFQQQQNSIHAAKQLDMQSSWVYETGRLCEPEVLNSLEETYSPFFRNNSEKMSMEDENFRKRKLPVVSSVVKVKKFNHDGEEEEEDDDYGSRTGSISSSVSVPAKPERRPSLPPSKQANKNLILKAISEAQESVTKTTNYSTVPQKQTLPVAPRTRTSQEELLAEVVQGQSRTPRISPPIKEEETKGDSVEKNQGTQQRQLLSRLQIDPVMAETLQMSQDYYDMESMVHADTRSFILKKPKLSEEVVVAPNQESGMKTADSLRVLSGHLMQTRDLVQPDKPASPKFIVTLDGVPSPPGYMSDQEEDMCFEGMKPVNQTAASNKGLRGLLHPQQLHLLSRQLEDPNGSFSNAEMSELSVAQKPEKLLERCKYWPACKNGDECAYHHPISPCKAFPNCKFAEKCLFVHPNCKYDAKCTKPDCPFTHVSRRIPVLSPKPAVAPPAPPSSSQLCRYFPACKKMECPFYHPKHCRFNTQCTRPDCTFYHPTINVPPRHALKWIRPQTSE
UniProt Q6P1L5: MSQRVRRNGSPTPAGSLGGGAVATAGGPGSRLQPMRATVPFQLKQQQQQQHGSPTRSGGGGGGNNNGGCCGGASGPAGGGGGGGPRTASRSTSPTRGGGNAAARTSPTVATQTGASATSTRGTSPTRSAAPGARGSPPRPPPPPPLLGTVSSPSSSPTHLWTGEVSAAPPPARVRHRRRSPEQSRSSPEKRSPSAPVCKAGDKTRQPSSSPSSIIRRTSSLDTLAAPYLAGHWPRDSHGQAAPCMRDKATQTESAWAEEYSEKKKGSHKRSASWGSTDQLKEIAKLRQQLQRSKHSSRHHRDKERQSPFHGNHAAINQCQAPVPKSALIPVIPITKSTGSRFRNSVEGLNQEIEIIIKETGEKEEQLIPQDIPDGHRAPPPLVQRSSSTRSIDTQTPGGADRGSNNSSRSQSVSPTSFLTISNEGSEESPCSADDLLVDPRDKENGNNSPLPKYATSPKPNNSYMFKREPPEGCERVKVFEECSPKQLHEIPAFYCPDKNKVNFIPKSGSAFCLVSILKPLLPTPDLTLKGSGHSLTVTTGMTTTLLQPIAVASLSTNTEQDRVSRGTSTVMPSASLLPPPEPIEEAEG
UniProt Q6Y7W6: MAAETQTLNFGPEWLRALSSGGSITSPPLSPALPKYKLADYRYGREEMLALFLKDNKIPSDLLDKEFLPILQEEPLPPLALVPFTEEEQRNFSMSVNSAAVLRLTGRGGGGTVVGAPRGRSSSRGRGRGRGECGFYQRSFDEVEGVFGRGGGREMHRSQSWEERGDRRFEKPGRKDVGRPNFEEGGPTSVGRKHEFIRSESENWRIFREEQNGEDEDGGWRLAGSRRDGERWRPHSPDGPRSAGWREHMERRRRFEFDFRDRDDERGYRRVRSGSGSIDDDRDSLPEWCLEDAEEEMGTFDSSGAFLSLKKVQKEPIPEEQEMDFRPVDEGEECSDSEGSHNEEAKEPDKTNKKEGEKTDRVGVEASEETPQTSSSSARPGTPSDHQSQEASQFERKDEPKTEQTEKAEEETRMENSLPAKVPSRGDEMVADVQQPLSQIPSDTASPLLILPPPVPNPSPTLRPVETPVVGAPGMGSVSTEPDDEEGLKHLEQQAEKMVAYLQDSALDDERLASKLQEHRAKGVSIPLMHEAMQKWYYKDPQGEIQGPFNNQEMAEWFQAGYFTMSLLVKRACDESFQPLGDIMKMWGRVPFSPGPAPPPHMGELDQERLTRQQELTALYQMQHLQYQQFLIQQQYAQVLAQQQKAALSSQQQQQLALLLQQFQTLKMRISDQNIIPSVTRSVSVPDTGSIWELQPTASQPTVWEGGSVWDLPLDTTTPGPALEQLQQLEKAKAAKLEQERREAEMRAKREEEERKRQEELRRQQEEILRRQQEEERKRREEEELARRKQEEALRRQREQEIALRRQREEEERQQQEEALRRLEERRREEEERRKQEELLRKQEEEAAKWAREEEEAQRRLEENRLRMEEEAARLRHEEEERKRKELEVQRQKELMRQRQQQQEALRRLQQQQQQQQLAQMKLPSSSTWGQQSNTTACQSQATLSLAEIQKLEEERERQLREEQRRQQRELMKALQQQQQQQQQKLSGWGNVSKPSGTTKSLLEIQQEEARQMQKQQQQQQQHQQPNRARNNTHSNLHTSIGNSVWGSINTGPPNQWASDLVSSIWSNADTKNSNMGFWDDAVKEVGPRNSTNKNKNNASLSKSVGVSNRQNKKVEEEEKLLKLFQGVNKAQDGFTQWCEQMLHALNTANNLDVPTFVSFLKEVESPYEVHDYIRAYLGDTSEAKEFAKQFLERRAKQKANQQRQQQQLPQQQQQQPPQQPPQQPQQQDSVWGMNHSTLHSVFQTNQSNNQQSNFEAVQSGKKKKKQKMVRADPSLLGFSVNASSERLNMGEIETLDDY
UniProt Q5TDH0: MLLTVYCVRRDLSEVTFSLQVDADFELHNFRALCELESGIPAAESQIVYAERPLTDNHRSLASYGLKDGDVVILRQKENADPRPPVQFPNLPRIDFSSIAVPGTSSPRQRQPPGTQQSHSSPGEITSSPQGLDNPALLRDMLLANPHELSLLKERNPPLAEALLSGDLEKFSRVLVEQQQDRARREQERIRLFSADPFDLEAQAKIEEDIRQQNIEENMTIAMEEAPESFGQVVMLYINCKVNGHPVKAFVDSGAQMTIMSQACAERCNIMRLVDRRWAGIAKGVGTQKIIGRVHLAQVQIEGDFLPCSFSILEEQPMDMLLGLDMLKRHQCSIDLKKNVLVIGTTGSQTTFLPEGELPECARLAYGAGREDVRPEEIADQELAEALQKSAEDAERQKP
UniProt Q7Z3K3: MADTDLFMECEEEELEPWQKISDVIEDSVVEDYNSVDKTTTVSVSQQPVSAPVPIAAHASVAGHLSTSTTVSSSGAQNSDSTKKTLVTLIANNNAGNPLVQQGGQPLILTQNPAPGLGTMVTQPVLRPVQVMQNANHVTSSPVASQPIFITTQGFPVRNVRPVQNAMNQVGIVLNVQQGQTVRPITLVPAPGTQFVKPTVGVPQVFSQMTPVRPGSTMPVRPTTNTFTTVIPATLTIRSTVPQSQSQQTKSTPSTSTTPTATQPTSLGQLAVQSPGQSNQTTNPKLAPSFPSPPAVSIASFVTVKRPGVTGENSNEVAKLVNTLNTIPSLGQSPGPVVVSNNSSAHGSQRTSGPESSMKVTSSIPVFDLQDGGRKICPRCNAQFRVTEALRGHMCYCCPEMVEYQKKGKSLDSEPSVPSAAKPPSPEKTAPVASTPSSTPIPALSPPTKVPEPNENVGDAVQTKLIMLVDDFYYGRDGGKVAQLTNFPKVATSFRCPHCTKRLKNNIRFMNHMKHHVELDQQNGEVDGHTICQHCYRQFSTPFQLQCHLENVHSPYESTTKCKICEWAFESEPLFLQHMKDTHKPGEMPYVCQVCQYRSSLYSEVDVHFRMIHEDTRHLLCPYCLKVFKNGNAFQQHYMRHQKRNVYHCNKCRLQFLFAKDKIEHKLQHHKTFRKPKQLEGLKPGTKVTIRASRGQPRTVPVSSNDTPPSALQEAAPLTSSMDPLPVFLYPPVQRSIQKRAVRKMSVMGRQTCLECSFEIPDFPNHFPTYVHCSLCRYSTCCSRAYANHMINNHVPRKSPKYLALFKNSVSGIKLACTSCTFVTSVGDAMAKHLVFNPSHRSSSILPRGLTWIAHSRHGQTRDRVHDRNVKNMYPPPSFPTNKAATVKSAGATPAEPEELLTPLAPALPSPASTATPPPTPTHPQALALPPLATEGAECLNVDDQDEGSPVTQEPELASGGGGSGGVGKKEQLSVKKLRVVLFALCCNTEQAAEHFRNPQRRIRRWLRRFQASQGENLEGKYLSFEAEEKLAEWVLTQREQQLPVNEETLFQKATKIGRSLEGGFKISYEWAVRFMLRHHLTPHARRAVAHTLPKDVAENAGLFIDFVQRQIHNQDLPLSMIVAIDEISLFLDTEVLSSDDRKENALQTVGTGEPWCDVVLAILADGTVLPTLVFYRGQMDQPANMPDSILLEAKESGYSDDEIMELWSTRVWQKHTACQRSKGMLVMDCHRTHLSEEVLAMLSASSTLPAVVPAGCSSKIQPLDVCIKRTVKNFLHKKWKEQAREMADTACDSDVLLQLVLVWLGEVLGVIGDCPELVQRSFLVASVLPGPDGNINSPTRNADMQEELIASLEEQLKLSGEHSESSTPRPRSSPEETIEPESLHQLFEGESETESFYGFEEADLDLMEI
UniProt Q86UE4: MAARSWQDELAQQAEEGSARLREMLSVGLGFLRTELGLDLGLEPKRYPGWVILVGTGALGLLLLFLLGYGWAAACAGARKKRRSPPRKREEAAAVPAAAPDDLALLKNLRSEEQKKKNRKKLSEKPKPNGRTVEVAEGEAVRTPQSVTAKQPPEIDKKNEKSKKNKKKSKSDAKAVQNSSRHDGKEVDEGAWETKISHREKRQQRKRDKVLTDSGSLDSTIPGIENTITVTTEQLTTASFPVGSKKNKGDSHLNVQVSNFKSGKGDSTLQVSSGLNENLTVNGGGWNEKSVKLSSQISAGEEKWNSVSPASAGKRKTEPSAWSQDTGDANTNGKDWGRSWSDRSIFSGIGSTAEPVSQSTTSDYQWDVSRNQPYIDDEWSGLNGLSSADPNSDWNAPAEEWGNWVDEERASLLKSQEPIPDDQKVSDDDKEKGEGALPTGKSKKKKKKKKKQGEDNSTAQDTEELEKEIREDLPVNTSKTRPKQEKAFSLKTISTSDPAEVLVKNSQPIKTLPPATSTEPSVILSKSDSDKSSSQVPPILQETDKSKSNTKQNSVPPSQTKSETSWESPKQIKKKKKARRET
UniProt Q6RFH5: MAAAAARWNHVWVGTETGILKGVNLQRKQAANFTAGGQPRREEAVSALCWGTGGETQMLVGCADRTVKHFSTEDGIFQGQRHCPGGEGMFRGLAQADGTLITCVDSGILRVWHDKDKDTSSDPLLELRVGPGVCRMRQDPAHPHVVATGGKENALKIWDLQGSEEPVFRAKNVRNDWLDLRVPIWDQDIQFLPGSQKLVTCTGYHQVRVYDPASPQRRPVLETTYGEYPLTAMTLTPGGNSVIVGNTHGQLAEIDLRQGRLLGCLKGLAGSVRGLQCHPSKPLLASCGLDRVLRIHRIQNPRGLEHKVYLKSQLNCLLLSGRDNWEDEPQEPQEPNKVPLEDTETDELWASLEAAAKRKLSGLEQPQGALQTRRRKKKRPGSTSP
UniProt Q63HQ0: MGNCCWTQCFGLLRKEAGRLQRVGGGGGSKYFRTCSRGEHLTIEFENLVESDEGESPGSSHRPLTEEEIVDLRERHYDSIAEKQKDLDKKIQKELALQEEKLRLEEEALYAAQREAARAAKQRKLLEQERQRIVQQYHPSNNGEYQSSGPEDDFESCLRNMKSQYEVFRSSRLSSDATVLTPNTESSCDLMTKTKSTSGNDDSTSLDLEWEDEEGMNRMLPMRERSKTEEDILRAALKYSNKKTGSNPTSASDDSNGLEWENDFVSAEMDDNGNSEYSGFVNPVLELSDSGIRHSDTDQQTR

Compound: Nc1nc2c(ncn2[C@@H]2O[C@H](COP(=O)(O)OP(=O)(O)OP(=O)(O)O)[C@@H](O)[C@H]2O)c(=O)[nH]1 [guanosine triphosphate]
Experiment: NP40-soluble protein abundance relative to vehicle (solubility fold change) (ratio); higher = more soluble protein in presence of GTP
Method in brief: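 Data come from three independent experiments in which Dounce-homogenised Jurkat crude lysate was treated at eight concentrations from 0.1 to 10 mM. Treatment ran 10 min at room temperature and then 3 min at 37 °C, after which 0.8% NP40 and benzonase were added for 60 min at 4 °C before ultracentrifugation. The supernatant underwent TMT labelling and LC-MS/MS, and vsn-normalised intensities were expressed as fold change against the detergent-processed vehicle in each replicate.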

Target	NP40-soluble protein abundance (concentration: 0.1mM)	NP40-soluble protein abundance (concentration: 0.5mM)	NP40-soluble protein abundance (concentration: 1mM)	NP40-soluble protein abundance (concentration: 2mM)	NP40-soluble protein abundance (concentration: 4mM)	NP40-soluble protein abundance (concentration: 6mM)	NP40-soluble protein abundance (concentration: 8mM)	NP40-soluble protein abundance (concentration: 10mM)
UniProt Q6NUQ4 and related entries	1 ± 0.034	0.991 ± 0.039	0.968 ± 0.05	0.978 ± 0.037	0.995 ± 0.031	0.987 ± 0.054	1.01 ± 0.069	1.03 ± 0.088
TMEM65 (UniProt Q6PI78)	1.1 ± 0.37	0.919 ± 0.079	0.932 ± 0.094	0.996 ± 0.21	0.921 ± 0.084	0.849 ± 0.12	0.853 ± 0.074	0.88 ± 0.089
DUS1L (UniProt Q6P1R4)	1.01 ± 0.065	1.03 ± 0.045	1.01 ± 0.03	0.963 ± 0.027	0.961 ± 0.074	0.973 ± 0.05	0.989 ± 0.048	0.949 ± 0.043
UniProt Q6P1J9	0.9922 ± 0.0089	0.996 ± 0.028	0.963 ± 0.035	0.969 ± 0.028	0.963 ± 0.017	0.958 ± 0.042	0.902 ± 0.034	0.84 ± 0.048
THOC7 (UniProt Q6I9Y2)	0.999 ± 0.13	1.15 ± 0.095	1.6 ± 0.23	1.92 ± 0.32	2.31 ± 0.58	2.51 ± 0.63	2.43 ± 0.56	2.78 ± 0.98
LIN54 (UniProt Q6MZP7)	0.996 ± 0.031	0.99 ± 0.074	1.02 ± 0.0042	1.07 ± 0.086	1.11 ± 0.054	1.1 ± 0.034	1.15 ± 0.054	1.16 ± 0.13
TSPYL5 (UniProt Q86VY4)	0.897 ± 0.044	0.872 ± 0.019	1.05 ± 0.054	1.07 ± 0.13	1.12 ± 0.13	1.13 ± 0.11	1.11 ± 0.11	1.29 ± 0.21
UniProt Q6PJT7 and related entries	0.964 ± 0.031	0.958 ± 0.047	1.03 ± 0.028	1.04 ± 0.065	1.1 ± 0.068	1.12 ± 0.04	1.17 ± 0.081	1.21 ± 0.091
TTC27 (UniProt Q6P3X3)	1.03 ± 0.025	0.999 ± 0.038	0.9425 ± 0.0021	0.971 ± 0.049	0.97 ± 0.051	0.908 ± 0.011	0.946 ± 0.011	0.893 ± 0.034
UniProt Q6ZNJ1 and related entries	1.08 ± 0.1	1.09 ± 0.14	1 ± 0.099	1.06 ± 0.16	1.1 ± 0.12	0.983 ± 0.15	1.01 ± 0.12	0.965 ± 0.11
Q5VYH9 and related entries (UniProt Q9HBG7)	0.905 ± 0.18	0.798 ± 0.16	0.853 ± 0.23	0.772 ± 0.22	0.773 ± 0.13	0.736 ± 0.2	0.784 ± 0.18	0.766 ± 0.19
UniProt Q7RTV0	1.06 ± 0.088	1.11 ± 0.1	1.09 ± 0.094	1.07 ± 0.1	1.1 ± 0.12	1.16 ± 0.096	1.19 ± 0.13	1.19 ± 0.16
CYB5R4 (UniProt Q7L1T6)	1.02 ± 0.058	1.05 ± 0.082	0.97 ± 0.079	0.98 ± 0.038	0.985 ± 0.032	0.933 ± 0.039	0.934 ± 0.082	0.91 ± 0.047
UniProt Q7Z4V5 and related entries	0.9 ± 0.11	0.855 ± 0.11	0.875 ± 0.13	0.842 ± 0.14	0.857 ± 0.14	0.858 ± 0.12	0.913 ± 0.12	0.949 ± 0.1
UniProt Q5THK1 and related entries	1.14 ± 0.15	1.08 ± 0.18	1.05 ± 0.14	1.05 ± 0.052	1.04 ± 0.13	1.07 ± 0.011	1.03 ± 0.13	1.01 ± 0.18
UniProt Q7L099-3|Q7L099-4	1 ± 0.036	1 ± 0.068	0.972 ± 0.041	0.958 ± 0.061	0.93 ± 0.034	0.934 ± 0.075	0.954 ± 0.032	0.941 ± 0.07
DARS2 (UniProt Q6PI48)	1.02 ± 0.046	1.05 ± 0.053	0.894 ± 0.015	0.925 ± 0.077	0.911 ± 0.042	0.904 ± 0.036	0.879 ± 0.031	0.864 ± 0.064
FAM117B (UniProt Q6P1L5)	1.01 ± 0.018	1.02 ± 0.018	1.05 ± 0.079	1.04 ± 0.013	1.03 ± 0.036	1.06 ± 0.056	1.12 ± 0.017	1.11 ± 0.021
UniProt Q7Z6V5 and related entries	1.07 ± 0.07	0.963 ± 0.12	1.237 ± 0.008	1.05 ± 0.17	1.16 ± 0.09	1.1 ± 0.016	1.09 ± 0.086	1.23 ± 0.1
TSEN54 (UniProt Q7Z6J9)	1 ± 0.049	1 ± 0.031	0.977 ± 0.063	0.995 ± 0.074	0.992 ± 0.063	0.97 ± 0.067	1.06 ± 0.032	1.03 ± 0.047
UniProt Q6Y7W6 and related entries	0.984 ± 0.041	0.996 ± 0.059	1.05 ± 0.056	1.09 ± 0.08	1.13 ± 0.062	1.16 ± 0.079	1.21 ± 0.062	1.2 ± 0.079
UniProt Q5TDH0 and related entries	0.965 ± 0.065	0.945 ± 0.067	0.932 ± 0.051	0.905 ± 0.051	0.921 ± 0.069	0.877 ± 0.057	0.899 ± 0.062	0.883 ± 0.091
RINL (UniProt Q6ZS11)	0.993 ± 0.22	1.03 ± 0.11	1 ± 0.087	1.04 ± 0.042	0.989 ± 0.15	0.9124 ± 0.0078	0.999 ± 0.13	1 ± 0.091
UniProt Q7Z3K3 and related entries	0.956 ± 0.026	0.989 ± 0.037	1.01 ± 0.034	1.06 ± 0.065	1.14 ± 0.08	1.22 ± 0.1	1.26 ± 0.14	1.28 ± 0.1
MTDH (UniProt Q86UE4)	1.02 ± 0.054	1.01 ± 0.061	1.12 ± 0.059	1.2 ± 0.1	1.34 ± 0.11	1.41 ± 0.13	1.5 ± 0.16	1.54 ± 0.2
UniProt Q6RFH5 and related entries	1.2 ± 0.014	1.09 ± 0.025	1.155 ± 0.0063	1.1847 ± 0.00068	1.229 ± 0.0015	1.26 ± 0.098	1.3 ± 0.017	1.37 ± 0.063
UniProt Q6P996 and related entries	1.01 ± 0.04	1.01 ± 0.056	1.03 ± 0.055	0.932 ± 0.032	0.967 ± 0.049	0.962 ± 0.048	0.978 ± 0.06	0.956 ± 0.065
UniProt Q63HQ0	0.923 ± 0.075	0.935 ± 0.056	0.951 ± 0.099	0.911 ± 0.13	1.02 ± 0.16	0.961 ± 0.12	0.952 ± 0.091	0.972 ± 0.11
SESTD1 (UniProt Q86VW0)	0.9781 ± 0.0072	1.03 ± 0.074	1.02 ± 0.064	0.872 ± 0.042	0.978 ± 0.072	0.975 ± 0.14	0.961 ± 0.044	0.913 ± 0.031
PRPF39 (UniProt Q86UA1)	1.08 ± 0.083	1.05 ± 0.063	1.07 ± 0.08	0.999 ± 0.057	1 ± 0.079	0.991 ± 0.052	1.03 ± 0.038	0.955 ± 0.043

Part of the list above, with each value named.
UniProt Q6P1J9
  NP40-soluble protein abundance (concentration: 0.1mM): 0.9922 ± 0.0089
  NP40-soluble protein abundance (concentration: 0.5mM): 0.996 ± 0.028
  NP40-soluble protein abundance (concentration: 1mM): 0.963 ± 0.035
  NP40-soluble protein abundance (concentration: 2mM): 0.969 ± 0.028
  NP40-soluble protein abundance (concentration: 4mM): 0.963 ± 0.017
  NP40-soluble protein abundance (concentration: 6mM): 0.958 ± 0.042
  NP40-soluble protein abundance (concentration: 8mM): 0.902 ± 0.034
  NP40-soluble protein abundance (concentration: 10mM): 0.84 ± 0.048
UniProt Q5THK1 and related entries
  NP40-soluble protein abundance (concentration: 0.1mM): 1.14 ± 0.15
  NP40-soluble protein abundance (concentration: 0.5mM): 1.08 ± 0.18
  NP40-soluble protein abundance (concentration: 1mM): 1.05 ± 0.14
  NP40-soluble protein abundance (concentration: 2mM): 1.05 ± 0.052
  NP40-soluble protein abundance (concentration: 4mM): 1.04 ± 0.13
  NP40-soluble protein abundance (concentration: 6mM): 1.07 ± 0.011
  NP40-soluble protein abundance (concentration: 8mM): 1.03 ± 0.13
  NP40-soluble protein abundance (concentration: 10mM): 1.01 ± 0.18
